Measurements as given in PubChem BioAssay AID588590 (National Center for Advancing Translational Sciences (NCATS), 2011).
The whole screen tested about 390,000 compounds, of which about 4,000 (1%) were called active. The inconclusive results got no clear call from the source; some entries with a clear call stand among them for comparison. The call rests on the fitted dose curve; in most records, active means well fitted inhibition curve with a large enough effect; inconclusive means small, poorly fitted or top-dose-only effect, or another doubt; inactive means no such curve, though single readings can be large or run the other way. A potency beside an inconclusive call is a rough fit, not a confirmed value.
Potency means the concentration at half of the fitted maximal effect.

Amino acid sequences for entries named in this document (tags omitted). A change or cut given only in a name is not applied to a line headed by its entry.
UniProt Q9UNA4: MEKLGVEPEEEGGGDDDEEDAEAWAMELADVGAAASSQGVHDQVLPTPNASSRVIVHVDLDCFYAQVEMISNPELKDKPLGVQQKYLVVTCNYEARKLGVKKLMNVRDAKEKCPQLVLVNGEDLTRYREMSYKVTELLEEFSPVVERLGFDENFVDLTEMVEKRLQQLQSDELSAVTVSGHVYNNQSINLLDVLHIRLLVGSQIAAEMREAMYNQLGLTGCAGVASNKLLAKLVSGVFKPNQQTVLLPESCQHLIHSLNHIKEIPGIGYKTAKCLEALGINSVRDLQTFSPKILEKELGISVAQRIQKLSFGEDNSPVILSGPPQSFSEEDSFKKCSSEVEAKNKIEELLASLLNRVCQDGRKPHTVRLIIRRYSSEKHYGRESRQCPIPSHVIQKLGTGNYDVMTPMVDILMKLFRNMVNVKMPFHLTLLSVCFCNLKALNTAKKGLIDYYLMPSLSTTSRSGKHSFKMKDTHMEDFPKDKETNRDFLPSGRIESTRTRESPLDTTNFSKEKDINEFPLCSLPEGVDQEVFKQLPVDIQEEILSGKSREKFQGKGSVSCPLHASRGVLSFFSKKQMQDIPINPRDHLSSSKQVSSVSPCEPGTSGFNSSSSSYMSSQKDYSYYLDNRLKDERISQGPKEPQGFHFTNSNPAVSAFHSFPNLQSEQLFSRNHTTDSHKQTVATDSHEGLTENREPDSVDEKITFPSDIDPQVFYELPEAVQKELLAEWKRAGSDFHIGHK

These compounds were tested against DNA polymerase iota (Homo sapiens) (UniProt Q9UNA4) (assay: qHTS for Inhibitors of Polymerase Iota). Settings: Pol iota fluorescent replication assay, 10 min; series mostly up to 115 µM.
How it was run: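 Pol iota at 10 nM preincubated 15 min with compounds at room temperature; reaction started with fluorescent substrate, 50 nM final. Fluorescence read kinetically at 0 and 10 min; buffer-only wells as negative control.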
With `O=C1N[C@@H](Cc2ccccc2)C(=O)N2[C@H]1C[C@]1([C@]34C[C@H]5C(=O)N[C@@H](Cc6ccccc6)C(=O)N5[C@H]3N(S(=O)(=O)c3ccccc3)c3ccccc34)c3ccccc3N(S(=O)(=O)c3ccccc3)[C@H]21` the Potency was inconclusive: 39.8 µM [inhibitor, single point].
`COc1ccc(/C=C/C(=O)OCC(=O)NC2CCCC(C)C2C)cc1S(=O)(=O)N1CCOCC1` (stereo unspecified) was tested, and the Potency was inconclusive: 89.1 µM [inhibitor, single point].
With `CCN(CC)CCNC(=O)c1ccc(Cn2c(SCc3ccccc3)nc3cccnc32)cc1` the Potency was “inactive”.
With `COc1ccc(CNC(=O)c2ccc(N3CCCC3)c(NC(=O)NCc3ccc(F)cc3)c2)cc1` the Potency was “inactive”.
With `O=c1cnnc(N/N=C/c2ccccn2)[nH]1` the Potency was inconclusive: 2.82 µM [inhibitor, full curve, poor fit].
In the case of `COc1ccccc1CNC(=O)C1CCC(CNS(=O)(=O)c2ccc3c(c2)CCCC(=O)N3)CC1` (stereo unspecified), the Potency is reported as “inactive”.
For `CN(C)c1ccc(C=C2SC(=S)NC2=O)cc1`, the Potency was inconclusive: 14.1 µM [inhibitor, partial curve, poor fit].
`CCOC(=O)CSC1=C(C#N)C(c2ccc(C)o2)CC(=O)N1` (stereo unspecified) was tested, and the Potency was inconclusive: 39.8 µM [inhibitor, single point].
With `CC(C)(C)C(=O)Oc1cc(N)n(S(=O)(=O)c2ccc(F)cc2)n1` the Potency was inconclusive: 39.8 µM [inhibitor, single point].
For `COC(=O)[C@H](CC(C)C)NC(=O)N1CCCCC1C` (stereo partly specified), the Potency was inconclusive: 22.4 µM [inhibitor, partial curve, poor fit].
For `CC(C)/C(C=O)=C(/NC1CCCCC1)c1ccccc1`, the Potency was “inactive”.
With `O=C(O)c1cc(=S)nc[nH]1` the Potency was inconclusive: 22.4 µM [inhibitor, partial curve].
`COc1ccc(NC2CCCN(C(=O)CCN3CCOCC3)C2)cc1` (stereo unspecified) was tested, and the Potency was active: 79.4 µM.
For `O=C(COc1ccc(Cl)cc1)Nc1ccc(-c2nc3ccccc3s2)c(O)c1`, the Potency was inconclusive: 100 µM [inhibitor, partial curve, poor fit].
`O=C(NCCc1ccccc1Cl)c1ccc(Cn2c(=O)c3cccn3c3cccnc32)cc1` was tested, and the Potency was inconclusive: 89.1 µM [inhibitor, partial curve, poor fit].
`Cc1c(C(c2ccc(F)cc2)c2c(C)n(C)n(-c3ccccc3)c2=O)c(=O)n(-c2ccccc2)n1C` was tested, and the Potency was inconclusive: 20 µM [inhibitor, single point].
For `O=C(O)CSCC(=O)Nc1cccc2ccccc12`, the Potency was inconclusive: 89.1 µM [inhibitor, partial curve, poor fit].
In the case of `N#Cc1ccc(-c2c(-c3ccccc3)ncc3cc(F)ccc23)cc1`, the Potency is reported as inconclusive: 39.8 µM [inhibitor, single point].
For `Cn1nnnc1SCC(=O)NCCCc1ccccc1`, the Potency was inconclusive: 35.5 µM [inhibitor, single point].
In the case of `COc1cc(-c2cc(OC)c3c(C)oc(C)c3c(=O)c2)ccc1OC(=O)c1ccccc1Cl`, the Potency is reported as “inactive”.
In the case of `CCCC(=O)C1C(=O)CC(CC(C)SCC)CC1=O` (stereo unspecified), the Potency is reported as inconclusive: 89.1 µM [inhibitor, single point].
`COc1ccc(Nc2ncc(C(=O)O)c3ccccc23)cc1` was tested, and the Potency was inconclusive: 100 µM [inhibitor, partial curve].
`CCc1ccc(-c2csc3[n+]2CCN3C(C)=O)cc1` was tested, and the Potency was inconclusive: 15.8 µM [inhibitor, partial curve, poor fit].
`Cc1ccc(NC(=O)Cn2cnc3sc(C(=O)O)c(C)c3c2=O)cc1Cl` was tested, and the Potency was “inactive”.
In the case of `CCNC(=O)c1c(NC(=O)C2COc3ccccc3O2)sc2c1CCCC2` (stereo unspecified), the Potency is reported as “inactive”.
With `CCc1cccc(NC(=O)CSC2=Nc3ccccc3N=C(c3ccc(F)cc3)C2)c1` the Potency was “inactive”.
`O=C(Cn1c(=O)c2cccn2c2ccccc21)NCCc1ccccc1` was tested, and the Potency was inconclusive: 56.2 µM [inhibitor, partial curve, poor fit].
With `S=c1[nH]nc(C2CCCCC2)n1/N=C/c1cccc(Cl)c1Cl` the Potency was inconclusive: 79.4 µM [inhibitor, partial curve].
With `O=C(O)c1ccc(COCC(F)(F)C(F)F)o1` the Potency was “inactive”.
`O=C1CSC(=Nc2ccc(Cl)cc2)N1Cc1ccco1` was tested, and the Potency was “inactive”.
For `O=[N+]([O-])c1cccc(N/N=C/c2cc([N+](=O)[O-])ccc2O)c1`, the Potency was inconclusive: 31.6 µM [inhibitor, single point].
`CCc1nn(CC(=O)NCCc2ccc(OC)cc2OC)c(=O)c2cc3c(OC)cccc3n12` was tested, and the Potency was “inactive”.
In the case of `CCOC(=O)C(Sc1cc(C)nc(N)n1)C(C)=O` (stereo unspecified), the Potency is reported as inconclusive: 3.16 µM [inhibitor, partial curve, poor fit].
For `CCCNC(=O)c1cc(Cl)c(NC(=O)C2=C(C)OCCS2)cc1OC`, the Potency was inconclusive: 89.1 µM [inhibitor, single point].
In the case of `COc1ccc(NC(=O)c2ccc(N3C(=O)C4CC=C(Cl)CC4C3=O)cc2)cc1` (stereo unspecified), the Potency is reported as inconclusive: 63.1 µM [inhibitor, single point].
`O=C(CSc1nnc2sc3ccccc3n12)c1ccco1` was tested, and the Potency was inconclusive: 56.2 µM [inhibitor, partial curve, poor fit].
With `CCC(CO)Oc1cc(NC(=O)c2ccccc2F)c2ncn(C(C)C)c2c1` (stereo unspecified) the Potency was inconclusive: 12.6 µM [inhibitor, partial curve, poor fit].
`Cc1ccc(OCC(=O)OCc2cc(=O)n3nc(-c4cccs4)sc3n2)cc1C` was tested, and the Potency was inconclusive: 89.1 µM [inhibitor, single point].
`Clc1cccc(-c2ccc(/C=N/n3cnnc3)o2)c1Cl` was tested, and the Potency was inconclusive: 20 µM [inhibitor, partial curve, poor fit].
For `O=C(N/N=C/C(Br)=C/c1ccccc1)c1ccccc1F`, the Potency was “inactive”.
For `C[C@H](CO)N1C[C@H](C)[C@@H](CN(C)C(=O)Nc2ccc3c(c2)OCO3)Oc2ccc(NC(=O)Nc3ccc4c(c3)OCO4)cc2C1=O`, the Potency was inconclusive: 39.8 µM [inhibitor, single point].
For `CCc1nnc(N/N=C/c2c(C)[nH]c3ccccc23)n1N`, the Potency was inconclusive: 10 µM [inhibitor, full curve, poor fit].
`O=C(O)CCc1ccc(-c2cccs2)n1NC(=O)c1ccc(Cl)cc1` was tested, and the Potency was inconclusive: 28.2 µM [inhibitor, full curve].
With `O=C(COC(=O)c1ccc(S(=O)(=O)N2CCOCC2)cc1)NC1CCCC1` the Potency was inconclusive: 5.62 µM [inhibitor, single point].
`CCCCN(C(=O)c1ccc(N(C)S(=O)(=O)c2ccc(C)cc2)cc1)c1c(N)n(CCCC)c(=O)[nH]c1=O` was tested, and the Potency was “inactive”.
For `O=C1CC(c2nc3ccccc3[nH]2)CN1c1cccc(Cl)c1` (stereo unspecified), the Potency was inconclusive: 89.1 µM [inhibitor, single point].
With `CC1Cc2ccccc2N1S(=O)(=O)c1cccc(C(=O)c2nccn2C)c1` (stereo unspecified) the Potency was inconclusive: 22.4 µM [inhibitor, single point].
For `COc1ccc(N(CCN2C(=O)c3ccccc3C2=O)C(=O)c2cccc([N+](=O)[O-])c2)cc1`, the Potency was “inactive”.
With `CC(=O)N(C(C)=O)N1C(=O)c2cccc3c(N4CCOCC4)ccc(c23)C1=O` the Potency was inconclusive: 8.91 µM [inhibitor, partial curve, poor fit].
For `CN1CCN(CC(=O)n2c3c(c4ccccc42)CCCC3)CC1`, the Potency was inconclusive: 17.8 µM [inhibitor, full curve].
For `Cc1cccc(C)c1OCC(C)N` (stereo unspecified), the Potency was “inactive”.
`CCOCCC(=O)Nc1cc(Cl)ccc1OC` was tested, and the Potency was “inactive”.
With `COc1ccc(-n2c(COc3cccc4ccccc34)nnc2SC(C)C(=O)O)cc1` (stereo unspecified) the Potency was “inactive”.
In the case of `Cc1cc(NC(=O)c2cccs2)ccc1NC(=O)Cc1ccccc1`, the Potency is reported as inconclusive: 100 µM [inhibitor, single point].
With `O=C(c1ccc(N2CN(C(=O)c3ccco3)c3nc4ccccc4nc32)cc1)N1CCOCC1` the Potency was inconclusive: 100 µM [inhibitor, partial curve, poor fit].
In the case of `O=C1C(=O)N(CCS(=O)(=O)c2ccccc2)c2ccc(F)cc21`, the Potency is reported as inconclusive: 22.4 µM [inhibitor, full curve].
For `COc1cccc(N2CCN(C(=O)c3ccc(Cn4c(=O)[nH]c5cc(OC)c(OC)cc5c4=O)cc3)CC2)c1`, the Potency was “inactive”.
For `N#C/C(=C/c1cn[nH]c1-c1cccc(Br)c1)C(=O)O`, the Potency was “inactive”.
In the case of `CCOC(=O)NC1(Nc2ccc(C)cc2)Oc2ccccc2O1`, the Potency is reported as inconclusive: 35.5 µM [inhibitor, partial curve, poor fit].
With `Cc1ccc(S(=O)(=O)Nc2ccccc2-c2ccccc2NS(=O)(=O)c2ccc(C)cc2)cc1` the Potency was inconclusive: 3.16 µM [inhibitor, full curve].
With `CC(C)(C)c1ccc(C2=NC(=O)C(CC(=O)O)S2)cc1` (stereo unspecified) the Potency was inconclusive: 56.2 µM [inhibitor, partial curve, poor fit].
In the case of `COc1cc(CNC(C)c2ccccc2)cc(Br)c1OCc1ccccc1` (stereo unspecified), the Potency is reported as “inactive”.
With `CCOC(=O)C1=CN(c2cccc(F)c2)C=C(C(=O)OCC)C1c1cc(OC)c(O)c([N+](=O)[O-])c1` the Potency was inconclusive: 31.6 µM [inhibitor, single point].
For `C=C(C(=O)O)C1CCC2(C)CCCC(C)(O)C2C1` (stereo unspecified), the Potency was inconclusive: 12.6 µM [inhibitor, partial curve, poor fit].
For `O=C(CNC(=O)c1cccc(F)c1)N/N=C/c1cc(Br)ccc1OC(=O)/C=C/c1ccco1`, the Potency was inconclusive: 50.1 µM [inhibitor, partial curve].
`CCOC(=O)C1CCCC12Nc1cccc3cccc(c13)N2` (stereo unspecified) was tested, and the Potency was inconclusive: 11.2 µM [inhibitor, partial curve].
